Laboratory results published in PubChem BioAssay AID651768 (National Center for Advancing Translational Sciences (NCATS), 2012).
Out of some 360,000 compounds screened, about 1,700 (0.47%) were called active. This list was built around the results that the source calls inconclusive (neither active nor inactive); the mix of calls is not that of the screen. The call rests on the fitted dose curve; in most records, active means well fitted inhibition curve with a large enough effect; inconclusive means small, poorly fitted or top-dose-only effect; inactive means no such curve, though single readings can be large or run the other way. Where the call is inconclusive, the potency comes from a doubtful curve fit.

Protein sequences, listed by entry. Tags and fused reporters are not part of them.
UniProt Q14191, whole entry, looked up: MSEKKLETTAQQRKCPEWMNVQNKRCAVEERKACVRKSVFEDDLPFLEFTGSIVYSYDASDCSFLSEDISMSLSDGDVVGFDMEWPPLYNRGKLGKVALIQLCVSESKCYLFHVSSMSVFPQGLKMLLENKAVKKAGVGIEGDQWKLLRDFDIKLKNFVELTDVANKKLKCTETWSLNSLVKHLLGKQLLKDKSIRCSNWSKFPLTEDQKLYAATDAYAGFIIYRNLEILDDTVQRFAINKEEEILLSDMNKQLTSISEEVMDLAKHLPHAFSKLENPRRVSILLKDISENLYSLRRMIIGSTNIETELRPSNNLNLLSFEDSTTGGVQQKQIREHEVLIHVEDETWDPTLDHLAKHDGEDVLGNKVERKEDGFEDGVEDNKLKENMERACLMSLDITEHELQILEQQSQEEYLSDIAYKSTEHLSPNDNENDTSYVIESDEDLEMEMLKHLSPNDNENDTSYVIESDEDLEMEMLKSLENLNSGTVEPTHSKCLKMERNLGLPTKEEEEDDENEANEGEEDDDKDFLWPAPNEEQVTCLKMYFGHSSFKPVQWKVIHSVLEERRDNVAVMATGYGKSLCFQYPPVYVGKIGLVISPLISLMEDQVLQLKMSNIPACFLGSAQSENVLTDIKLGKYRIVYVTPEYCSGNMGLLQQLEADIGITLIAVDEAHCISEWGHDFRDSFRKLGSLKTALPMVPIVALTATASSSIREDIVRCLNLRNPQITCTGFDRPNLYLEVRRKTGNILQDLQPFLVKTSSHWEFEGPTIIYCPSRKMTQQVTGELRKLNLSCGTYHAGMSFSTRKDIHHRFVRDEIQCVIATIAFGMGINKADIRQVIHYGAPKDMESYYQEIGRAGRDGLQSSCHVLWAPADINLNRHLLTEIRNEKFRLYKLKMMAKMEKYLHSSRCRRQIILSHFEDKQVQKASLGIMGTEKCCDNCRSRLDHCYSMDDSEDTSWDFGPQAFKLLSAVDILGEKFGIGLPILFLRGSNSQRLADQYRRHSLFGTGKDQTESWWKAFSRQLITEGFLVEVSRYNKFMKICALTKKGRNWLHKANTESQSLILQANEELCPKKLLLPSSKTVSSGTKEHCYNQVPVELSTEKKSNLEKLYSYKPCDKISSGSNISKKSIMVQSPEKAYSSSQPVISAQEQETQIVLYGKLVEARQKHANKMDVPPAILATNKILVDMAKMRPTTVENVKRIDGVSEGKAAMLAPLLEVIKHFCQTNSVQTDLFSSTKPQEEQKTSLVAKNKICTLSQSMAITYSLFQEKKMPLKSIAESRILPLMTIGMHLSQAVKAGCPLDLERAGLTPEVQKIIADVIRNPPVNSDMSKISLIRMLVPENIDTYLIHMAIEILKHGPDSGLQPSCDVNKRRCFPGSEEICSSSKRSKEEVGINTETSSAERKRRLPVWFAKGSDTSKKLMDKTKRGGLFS

Target: Bifunctional 3'-5' exonuclease/ATP-dependent helicase WRN (Homo sapiens) (UniProt Q14191)
Assay: qHTS for Inhibitors of WRN Helicase; further: nearly all actives have a fitted effect of over 55% in size
Settings: WRN helicase unwinding, fluorescent forked duplex, kinetic; activity change, negative = inhibition: at 114 µM (top of the series) unless noted
In short: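 Screening of the MLSMR collection measured strand separation of a quenched forked DNA duplex (100 nM) by 20 nM WRN with 2 mM ATP, all final. Compounds were preincubated with enzyme 15 min at room temperature.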
On the % scale 0 is the no-effect control and ±100 the full control effect; potency means the concentration at half of the fitted maximal effect.

Row | SMILES | Potency | activity change, negative = inhibition
1 | CCOc1ccccc1-n1c(=O)c2ccccc2c2ccccc2c1=O | inconclusive: 44.7 µM [inhibitor, partial curve] | 
2 | Cc1ccc(NC(=O)c2sc3nc(N)c(C#N)cc3c2N)cc1 | inconclusive: 14.1 µM [inhibitor, single point] | 
3 | COc1ccccc1CNC(=O)[C@@H]1CCCN1S(=O)(=O)c1ccc(Cl)cc1 | inconclusive: 31.6 µM [inhibitor, single point] | 
4 | O=C(/C=C/c1c(F)cccc1Cl)Nc1ccc(S(=O)(=O)Nc2ncccn2)cc1 | inconclusive: 35.5 µM [inhibitor, partial curve] | 
5 | CCOC(=O)c1sc(=S)n(-c2ccc(C)cc2)c1N | inactive | 
6 | COC(=O)c1ccc(Cc2ccc(C(=O)OC)o2)o1 | inactive | 
7 | COc1ccc(/C=C2/C(=N)N3C(=NC2=O)Sc2cc(S(C)(=O)=O)ccc23)cc1OC | inconclusive: 6.31 µM [inhibitor, full curve, poor fit] | 
8 | CCNc1nc2c(c(=O)n(C)c(=O)n2C)n1CCCc1ccccc1 | inconclusive: 79.4 µM [inhibitor, partial curve] | 
9 | N#Cc1c(C#N)c(SSc2c(C#N)c(C#N)c(N)n2-c2ccccc2)n(-c2ccccc2)c1N | inactive | 
10 | COc1ccc(/C=C/C(=O)c2ccncc2)c2ccccc12 | inconclusive: 50.1 µM [inhibitor, partial curve] | 
11 | COc1cc(/C=N/NC(=O)Cc2ccc(Br)cc2)cc(OC)c1O | inactive | 
12 | O=C(NCCO)c1ccc2[nH]c3ccccc3c2c1 |  | inconclusive: -37.4% [inhibitor] [at 57.1 µM]
13 | Cc1cc(C)cc(NC(=O)C(c2ccccc2)N2CCN(CC(=O)NC3CC3)CC2)c1 (centres undefined) | inconclusive: 17.8 µM [inhibitor, single point] | 
14 | Cc1cccc(N(C(=O)c2snc(C(N)=O)c2N)C(C(=O)NCC2CCCO2)c2ccc(N(C)C)cc2)c1 (centres undefined) | inconclusive: 12.6 µM [inhibitor, partial curve] | 
15 | Cc1noc(NS(=O)(=O)c2ccc(NC(=O)c3cc(S(=O)(=O)Nc4ccc(F)cc4)ccc3Cl)cc2)c1C | inconclusive: 15.8 µM [inhibitor, single point] | 
16 | O=C(O)c1ccc(-n2cccc2/C=C2/SC(=O)N(CC(=O)N3CCCC3)C2=O)cc1 | active: 20 µM | 
17 | O=Cc1c(-c2ccc(Cl)cc2)oc2ccc(O)cc12 | inconclusive: 89.1 µM [inhibitor, partial curve] | 
18 | O=C(CNC(=O)c1ccccc1F)NCCOc1ccccc1Cl | inactive | 
19 | O=[N+]([O-])c1ccc(Nc2cccc3c2[nH]c2c(-c4ccccc4)nccc23)c([N+](=O)[O-])c1 | inconclusive: 17.8 µM [inhibitor, partial curve] | 
20 | COc1ccc(C2=CC3=C(Br)C(=O)C(C)(OC(=O)c4ccc(Cl)nc4)C(=O)C3=CO2)cc1 (centres undefined) | inconclusive: 35.5 µM [inhibitor, single point] | 
21 | CSc1nc(=S)c2[nH]c(=S)[nH]c2[nH]1 | active: 50.1 µM | 
22 | O=C(NN1C(=O)/C(=C/c2ccc(O)c(O)c2)SC1=S)c1ccccc1 | inconclusive: 3.77 µM [inhibitor, partial curve] | 
23 | NC(=S)N=Nc1c(O)[nH]c2ccccc12 | inconclusive: 10 µM [inhibitor, partial curve] | 

Row | SMILES | Potency | activity change, negative = inhibition
24 | CCOc1cc(/C=C2/SC(=S)N(CC3CCCO3)C2=O)ccc1O (centres undefined) | active: 35.5 µM | 
25 | Cc1c(CCC(=O)O)c(=O)oc2cc(OCc3ccccc3Br)ccc12 | inconclusive: 56.2 µM [inhibitor, partial curve] | 
26 | COc1ccc(CC(=O)O/N=C(\N)Cc2ccc([N+](=O)[O-])cc2)cc1 | inconclusive: 39.8 µM [inhibitor, single point] | 
27 | CCN1C(=O)C(=CC=CN(C)c2ccccc2)SC1=S | inconclusive: 89.1 µM [inhibitor, single point] | 
28 | Cc1ccc(NCc2nnc(SCC(=O)O)n2Cc2ccccc2)cc1Cl | inactive | 
29 | CCOc1cc(/C=C\c2nc(O)c([N+](=O)[O-])c(=O)[nH]2)ccc1OC(C)C | inactive | 
30 | CC1(C)Cc2c(C#N)c(N3CCN(C(=O)c4ccccc4)CC3)nc(-c3ccco3)c2CS1 | inconclusive: 79.4 µM [inhibitor, partial curve] | 
31 | Cc1ccc(S(=O)(=O)N2CCCC2C(=O)OCc2ccco2)cc1 (centres undefined) | inconclusive: 56.2 µM [inhibitor, partial curve] | 
32 | O=C(O)c1cccc(NC(=S)NC(=O)c2ccc(-c3ccc(Cl)cc3)o2)c1 | inconclusive: 63.1 µM [inhibitor, single point] | 
33 | CCOc1ccc(NC(=S)N2CCN(S(=O)(=O)c3ccc(OC)cc3)CC2)cc1 | inconclusive: 89.1 µM [inhibitor, single point] | 
34 | O=C(Nc1ccc(N2CCCC2)c(Cl)c1)c1cccc(-c2cc3ccccc3oc2=O)c1 | inactive | 
35 | Nc1c(C(=O)OCC(=O)Nc2cccc([N+](=O)[O-])c2)[nH]c(=O)[nH]c1=O | inconclusive: 28.2 µM [inhibitor, full curve] | 
36 | C/C(=N\Nc1nc2ccccc2c(=O)n1O)c1ccco1 |  | inactive: -13.8% [at 11.6 µM]
37 | CC1C(C)N(C(=O)CCl)c2ccccc2N1C(=O)CCl (centres undefined) | inconclusive: 22.4 µM [inhibitor, full curve] | 
38 | COc1cccc(NS(=O)(=O)c2ccc3c(c2)C2C=CCC2C(c2ccc(C(=O)O)cc2)N3)c1 (centres undefined) | active: 44.7 µM | 
39 | Cc1cccc(NC(=O)CN2C(=O)S/C(=C\c3ccc(O)c([N+](=O)[O-])c3)C2=O)c1 | inconclusive: 79.4 µM [inhibitor, partial curve] | 
40 | O=C(/C=C/c1ccc(O)c(O)c1)NC(=O)c1ccccc1O | active: 56.2 µM | 
41 | COc1ccc(-n2c(N)c(C(=O)NCc3cccnc3)sc2=S)cc1 | inactive | 
42 | Cc1cccc(C(=O)N[C@H](C(=O)OCc2cc(=O)n3c(n2)sc2ccccc23)C(C)C)c1 | inconclusive: 50.1 µM [inhibitor, partial curve] | 
43 | O=C1Nc2ccccc2/C1=C/c1cnc(-c2ccccc2)[nH]1 | inconclusive: 6.31 µM [inhibitor, full curve, poor fit] | 
44 | COc1cc(-c2nnc3sc(-c4ccncc4)nn23)cc(OC)c1OC | inactive | 
45 | COc1ccc(Br)cc1CN1CCN(c2ncccn2)CC1 | inconclusive: 20 µM [inhibitor, single point] | 
46 | O=C(c1cccc(-n2cccc2)c1)N1CCN(S(=O)(=O)c2c(F)cccc2F)CC1 | inconclusive: 44.7 µM [inhibitor, partial curve] | 

Copied from above for reference:
Row | SMILES | Potency | activity change, negative = inhibition
19 | O=[N+]([O-])c1ccc(Nc2cccc3c2[nH]c2c(-c4ccccc4)nccc23)c([N+](=O)[O-])c1 | inconclusive: 17.8 µM [inhibitor, partial curve] | 
20 | COc1ccc(C2=CC3=C(Br)C(=O)C(C)(OC(=O)c4ccc(Cl)nc4)C(=O)C3=CO2)cc1 (centres undefined) | inconclusive: 35.5 µM [inhibitor, single point] | 
21 | CSc1nc(=S)c2[nH]c(=S)[nH]c2[nH]1 | active: 50.1 µM | 
22 | O=C(NN1C(=O)/C(=C/c2ccc(O)c(O)c2)SC1=S)c1ccccc1 | inconclusive: 3.77 µM [inhibitor, partial curve] | 
23 | NC(=S)N=Nc1c(O)[nH]c2ccccc12 | inconclusive: 10 µM [inhibitor, partial curve] | 

Next part

Row | SMILES | Potency | activity change, negative = inhibition
47 | O=C(OCc1ccccc1)N1CCN(C(c2ccnc3ccccc23)c2nnnn2-c2ccc3c(c2)OCCO3)CC1 (centres undefined) | inactive | 
48 | Cc1ccc(/C(N)=N/OC(=O)c2cccc(Cn3cc(C(F)(F)F)ccc3=O)c2)cc1 | inactive | 
49 | CCSc1nnc(-c2sc3nnc(-c4ccccc4)c(-c4ccccc4)c3c2N)o1 | inactive | 
50 | CC(=O)c1sc(NCc2ccc(C)cc2)nc1C | inactive | 
51 | CC(=O)/C(N=Nc1nc2c([nH]1)c(=O)n(C)c(=O)n2C)=C(\C)O | inconclusive: 22.4 µM [inhibitor, single point] | 
52 | COc1ccc(Oc2ccc(/C=C/C(=O)c3cccc(OC)c3)cc2[N+](=O)[O-])cc1 | inactive | 
53 | CC(C)(CO)NCc1ccc(Br)cc1 | inconclusive: 89.1 µM [inhibitor, single point] | 
54 | CC(C)CNC(=O)C1C(=O)Nc2ccccc2C(=O)N1C1CCCCC1 (centres undefined) | inactive | 
55 | O=C(CN1c2cccc3cccc(c23)S1(=O)=O)Nc1ccc(S(=O)(=O)N2CCOCC2)cc1 | inconclusive: 39.8 µM [inhibitor, single point] | 
56 | Cc1nnc(-c2ccccc2)nc1N(C)C | inactive | 
57 | CS(=O)(=O)N1Cc2ccccc2CC1C(=O)OCC(=O)NCc1ccccc1 (centres undefined) | inconclusive: 56.2 µM [inhibitor, partial curve] | 
58 | COc1cc(C(=O)NC(=S)Nc2ccccc2[N+](=O)[O-])cc(OC)c1OC | inactive | 
59 | O=C1C(Cl)=C(Oc2ccccc2)C(=O)c2ccccc21 |  | inconclusive: -89.5% [inhibitor]
60 | Cc1ccnc2nc(C(=O)Nc3nc(-c4ccccn4)cs3)nn12 | inconclusive: 56.2 µM [inhibitor, partial curve] | 
61 | Cc1c2ccccc2nc2c(F)c(NCCO)c(F)c(F)c12 | inconclusive: 14.1 µM [inhibitor, single point] | 
62 | Cc1ccc(NC2c3ncccc3C(=O)N2c2ccccc2C)cc1C (centres undefined) | active: 44.7 µM | 
63 | O=C(c1ccco1)N1CCN(C(=O)c2ccco2)C1=S | inconclusive: 22.4 µM [inhibitor, single point] | 
64 | CC(CCc1ccccc1)NC(=O)COC(=O)c1ccc(S(C)(=O)=O)c([N+](=O)[O-])c1 (centres undefined) | inconclusive: 89.1 µM [inhibitor, single point] | 
65 | O=C(N/N=C/c1cc2c3c(c1O)CCCN3CCC2)c1ccccc1O | inconclusive: 25.1 µM [inhibitor, single point] | 
66 | O=C(NN1C(=O)C2C3C=CC(O3)C2C1=O)c1cccc(Br)c1 (centres undefined) | inconclusive: 28.2 µM [inhibitor, single point] | 
67 | CCCCc1nc2ccccc2c(NC(=O)CN2CCN(C)CC2)c1CCC | inconclusive: 25.1 µM [inhibitor, full curve, poor fit] | 
68 | COc1ccc2sc(/C=C/c3ccccc3O)[n+](C)c2c1 | inconclusive: 4.74 µM [inhibitor, partial curve] | 
69 | O=S(=O)(Nc1nccs1)c1ccc(Nc2nnc(-c3ccccc3)c3ccccc23)cc1 | inconclusive: 10 µM [inhibitor, partial curve] | 
